Results are given in words; binding and its absence hold for the method and conditions named. Some results given as binding are weak or reduced against the parent protein; the word gives no strength. Tags and fused reporters may be left off the sequences shown.
Assays:
phyA-BD (Arabidopsis) [1] = biological target: T1, phyA-BD (Arabidopsis) (UniProt P14712); assay: two-hybrid; yeast Y187, β-galactosidase activity (Miller units); cultures with 10 µM PCB, 5 min red light pulse (12 µmol m^-2 s^-1), then 240 min dark; 5 min far-red pulse given 0, 60, 120 or 240 min after the red pulse
T1 sequence: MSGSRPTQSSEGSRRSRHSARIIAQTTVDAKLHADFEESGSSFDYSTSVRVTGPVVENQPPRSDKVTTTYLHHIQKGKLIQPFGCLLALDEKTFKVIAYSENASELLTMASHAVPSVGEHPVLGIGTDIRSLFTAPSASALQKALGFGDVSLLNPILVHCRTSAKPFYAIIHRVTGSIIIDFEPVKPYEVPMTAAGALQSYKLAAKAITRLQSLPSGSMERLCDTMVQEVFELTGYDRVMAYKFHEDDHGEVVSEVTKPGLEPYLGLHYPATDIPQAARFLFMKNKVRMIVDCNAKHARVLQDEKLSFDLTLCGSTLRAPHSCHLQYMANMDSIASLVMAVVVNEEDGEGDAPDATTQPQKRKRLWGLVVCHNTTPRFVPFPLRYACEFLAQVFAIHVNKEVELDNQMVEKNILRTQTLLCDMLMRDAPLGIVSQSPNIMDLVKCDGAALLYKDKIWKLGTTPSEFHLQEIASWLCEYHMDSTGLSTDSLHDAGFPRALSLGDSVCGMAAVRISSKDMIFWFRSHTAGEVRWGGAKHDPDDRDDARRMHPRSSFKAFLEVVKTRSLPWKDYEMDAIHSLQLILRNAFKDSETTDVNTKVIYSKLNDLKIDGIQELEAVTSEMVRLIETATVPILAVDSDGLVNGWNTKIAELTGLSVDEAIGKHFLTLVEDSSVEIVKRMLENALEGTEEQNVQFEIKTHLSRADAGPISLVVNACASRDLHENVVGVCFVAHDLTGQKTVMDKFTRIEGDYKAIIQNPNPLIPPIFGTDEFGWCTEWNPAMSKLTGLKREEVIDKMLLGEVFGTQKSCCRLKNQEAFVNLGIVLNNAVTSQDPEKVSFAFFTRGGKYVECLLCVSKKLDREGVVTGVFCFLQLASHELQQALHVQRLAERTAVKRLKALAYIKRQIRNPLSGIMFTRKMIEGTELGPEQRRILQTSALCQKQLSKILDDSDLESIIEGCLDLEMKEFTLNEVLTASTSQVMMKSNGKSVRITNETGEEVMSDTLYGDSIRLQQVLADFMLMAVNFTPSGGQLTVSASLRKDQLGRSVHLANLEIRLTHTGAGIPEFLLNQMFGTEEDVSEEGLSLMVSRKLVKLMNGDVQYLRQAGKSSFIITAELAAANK

phyA-BD (Arabidopsis) [2] = biological target: T1, phyA-BD (Arabidopsis); assay: two-hybrid; yeast AH109, growth on L-W-H- plates with 1 mM 3-aminotriazole and 10 µM PCB, 3 d in 1 µmol m^-2 s^-1 red light (Pfr) or 13 µmol m^-2 s^-1 far-red light (Pr)

binding (phyA-BD (Arabidopsis) [1]): binds | binding (phyA-BD (Arabidopsis) [2]): binds
B1: AD-FHY1 (protein, UniProt Q8S4Q6 1-202)
chain: MPEVEVDNNNEKPSEINSFHHMIISSSKNVLKMEEVEVSKKRKFQTDQSDELSLLPLSKHTCFANVACSENTNGNSEIDTEYSMSSYVNSTTSMECNNDIEMKEESSGSCGEDKMISFESHLDYIYGTQNLEDFSEKVIENILYLDEQEEEEEDAKGCSSNAAKFVLSSGRWTVNQDDSTLHETKKPTIDQEFEQYFSTLML

— paper PMC2483295
